43 compounds from PubChem BioAssay AID901 (National Center for Advancing Translational Sciences (NCATS), 2007) can be followed below.

The list shows a part of the results. The main result of the screen is listed elsewhere. These columns were measured beside it and carry no call. Most of these compounds were active or inconclusive in the main read-out, so they are no random draw. Words in brackets tell the shape of the fitted curve; partial curves, single points and poor fits give uncertain potencies.

This test in a line: qHTS Assay for Identifying the Cell-Membrane Permeable IMPase Inhibitors. The settings on record: CHO-M1 cells, IP1 accumulation, HTRF TR-FRET ratio; measured here: donor channel 620 nm AC50.
In the case of `CCN(CC)C(=O)c1scc2c1OCCO2`, the concentration at half-maximal activity (AC50) was 2 µM [falling, partial curve, poor fit].

Consider `COC(=O)c1[nH]c2ccc(F)cc2c1NC(=O)Nc1ccc(OC)cc1`, for which the AC50 is 15.8 µM [falling, partial curve, poor fit]. Take `N#Cc1cc2c(nc1SCC(=O)Nc1sc3c(c1C#N)CCC3)CCCCC2`: the AC50 is 5.01 µM [falling, single point]. As for `COc1ccccc1-n1c(SCC(=O)NC(C)(C)C)nnc1-c1ccco1`, the AC50 was 12.6 µM [falling, partial curve, poor fit].

With `Cc1nc2ccc3nc(NC(=O)c4ccc5c(c4)OCCO5)sc3c2s1`, the AC50 is 20 µM [rising, partial curve]. For `c1ccc2c(c1)CCN(Cc1nnnn1Cc1ccc3c(c1)OCO3)C2`, the AC50 was 15.8 µM [falling, single point]. Turning to `CCCOc1ccc(-c2nn(-c3ccccc3)cc2/C=C2\SC(=S)N(C3CCS(=O)(=O)C3)C2=O)cc1` (stereo not drawn), the AC50 was 0.0631 µM [rising, partial curve, poor fit]. On to `Oc1[nH]c2ccccc2c1/C=N/N1CCCCC1`, for which the AC50 was 5.01 µM [falling, full curve, poor fit].

Consider `COc1cccc(-c2nnc(NC(=O)c3ccc(S(=O)(=O)N4CCOCC4)cc3)o2)c1`, for which the AC50 was 3.98 µM [falling, single point]. The value for `CC1(C)COC(c2cccn2Cc2ccccc2Cl)=N1` was 1.58 µM [falling, partial curve, poor fit].

For `Nc1nnc(-c2ccccc2)s1`, the AC50 is 31.6 µM [falling, single point]. Regarding `COc1cccc(N=Nc2c(=O)[nH]n3c(=O)cc(C)[nH]c23)c1`, the AC50 was 12.6 µM [falling, partial curve]. As to `O=C(O)CCC(=O)N1CCN(c2nc3ccccc3s2)CC1`, the AC50 is 35.5 µM [falling, single point]. Consider `COc1ccc(Br)cc1-c1noc(-c2ccncc2)n1`, for which the AC50 was 35.5 µM [rising, single point]. Take `CCC(=O)NC(Nc1ncc(C)s1)(C(=O)OC)C(F)(F)F` (stereo not drawn): the AC50 was 0.0447 µM [falling, full curve, poor fit]. With `O=C(Nc1cc(C(F)(F)F)ccc1N1CCOCC1)c1cccc(F)c1`, the AC50 was 3.16 µM [falling, single point]. With `CC(C)(C)C(=O)NC1CCN(S(=O)(=O)c2ccccc2F)CC1`, the AC50 was 0.00398 µM [falling, full curve, poor fit]. `COc1cc(CNc2nc(C)c([N+](=O)[O-])c(C)c2C#N)cc(OC)c1`: the AC50 was 1.78 µM [rising, full curve]. Under `CCN(CC)c1ccc(NC(=O)c2cnn3c(C(F)F)cc(-c4ccccc4)nc23)cc1` stands 4.47 µM [rising, single point]; under `CCOC(=O)c1cnn(-c2ccccc2)c1NC(=O)c1ccccc1C`, 0.126 µM [falling, single point]. Consider `CCOc1ccc(C2CC(c3ccccc3C)n3nc(N)nc3N2)cc1` (stereo not drawn), for which the AC50 is 0.0126 µM [falling, full curve, poor fit]. For `COc1ccc(NC(=S)NN2CCOCC2)cc1OC`, the AC50 was 0.00501 µM [falling, full curve, poor fit].

In the case of `CCOC(=O)Nc1ccc2c(c1)N(C(=O)CN(CC)CC)c1ccccc1C=C2`, the concentration at half-maximal activity (AC50) is 3.55 µM [rising, partial curve, poor fit].

For `O=C1c2ccccc2C(=O)c2c1ccc(O)c2O`, the AC50 is 15.8 µM [falling, partial curve]. As for `CC(=O)c1cccc(NC(=O)c2oc(C)nc2C)c1`, the AC50 is 0.251 µM [falling, partial curve, poor fit]. Under `O=C(NCCN1CCCCC1)c1c(O)c2ccccc2[nH]c1=O` stands 0.0631 µM [rising, full curve, poor fit]. Under `CC(C)(C)C(=O)c1cnc(Nc2ccccc2Cl)s1` stands 3.16 µM [rising, single point]. `CCCCN1C(=O)C2C3C=CC(C2C1=O)C1C2C(=O)N(CCCC)C(=O)C2C31` (stereo not drawn): the AC50 is 0.01 µM [rising, full curve, poor fit]. Regarding `Cc1cc2ccccc2n1CCNC(=O)C1CCCC1`, the AC50 was 0.0251 µM [falling, full curve, poor fit]. Consider `O=C(CCCn1nnc(-c2cccnc2)n1)c1ccc(F)cc1`, for which the AC50 was 2.51 µM [falling, partial curve, poor fit]. Under `CC(=O)c1ccc(NC(=O)COC(=O)c2ccccc2Sc2ccccc2C#N)cc1` stands 0.00447 µM [falling, full curve, poor fit]; under `O=C(c1cc2ccccc2oc1=O)N(Cc1cccs1)Cc1ccccc1Cl`, 5.01 µM [falling, single point]. For the compound `CC1(C)N=C(c2cccc(F)c2)C(=O)N1`, the AC50 is 0.0158 µM [rising, full curve, poor fit].

In the case of `O=C(OCn1ncc(Br)c(Br)c1=O)c1ccc(F)cc1`, the AC50 is 31.6 µM [rising, single point]. Under `Cc1ccc(C(=O)Nc2ccc(-c3nc4ccccc4o3)cc2)cc1Cl` stands 22.4 µM [rising, partial curve].

On to `COc1ccc(C)c2sc(=NC(=O)c3ccccc3)n(C)c12`, for which the AC50 was 35.5 µM [rising, single point]. Regarding `CCn1c(CCNC(=O)c2ccc(OC)c(OC)c2)nc2ccccc21`, the AC50 is 0.398 µM [rising, partial curve, poor fit].

As for `Oc1ccc(-c2cn3c(n2)SCC3)cc1O`, the AC50 is 12.6 µM [falling, single point].

For the compound `CCC(c1nnc(SCC(=O)Nc2ccc(C(=O)Nc3ccccc3OC)cc2)o1)N(C)C` (stereo not drawn), the AC50 is 1.26 µM [falling, single point].

As to `O=C(CSc1ccccn1)N/N=C/C=C/c1ccccc1`, the AC50 was 20 µM [falling, single point]. Take `c1ccc(-n2c(-c3cccs3)nc3nc4ccccc4nc32)cc1`: the AC50 is 5.62 µM [rising, single point]. `CCn1nnc(-c2ccccc2NC(=O)C(F)(F)F)n1`: the AC50 is 1.26 µM [falling, full curve]. On to `Cc1ccccc1Nc1c(-c2c[nH]c3ccccc23)nc2cccc(C)n12`, for which the AC50 was 12.6 µM [rising, partial curve, poor fit].
